The values below come from ChEMBL document CHEMBL2424637, “Nucleophilic substitution reactions of 1,4-naphthoquinone and biologic properties of novel S-, S,S-, N-, and N,S-substituted 1,4-naphthoquinone derivatives” (2013).

In this assay the test system is Aspergillus niger. The assay can be described thus: Antifungal activity against Aspergillus niger F-1119 at 0.1% after 48 to 72 hrs by agar disk diffusion technique. It counts as functional.

NYSTATIN had an inhibition zone (IZ) of 20 mm.
